Patent publication US12577239B2, “Sulfilimines or sulfoximines containing fungicidal heterocyclic compounds” (PI INDUSTRIES LTD., priority 2019, dated 2026)
Some entries share one result that the patent states for a list of compounds.

Tested on: Plasmopara viticola
Test: Greenhouse Example B: Plasmopara viticola test in grape (preventive spray)
Details: 50 ppm, grape seedlings inoculated one day after treatment, visual disease severity rating

| Compound | control compared to the untreated check (Efficacy, % control) [%] |
| --- | --- |
| CS(=N)(=O)c1cccc(Cl)c1C1CC(c2csc(C3CCN(C(=O)Cn4nc(C(F)F)cc4C(F)F)CC3)n2)=NO1 (centres unmarked) [Compound 3, (2-(3-(2-(1-(2-(3,5-bis (difluoromethyl)-1H-pyrazol-1-yl)acetyl)piperidin-4-yl)thiazol-4-yl)-4,5-dihydroisoxazol-5-yl)-3-chlorophenyl) (imino) (methyl)-λ^6-sulfanone] | ≥ 70 |
| Cc1cc(C(F)(F)F)nn1CC(=O)N1CCC(c2nc(C3=NOC(c4c(F)cccc4N=S(C)(C)=O)C3)cs2)CC1 (centres unmarked) [Compound 6, ((3-fluoro-2-(3-(2-(1-(2-(5-methyl-3-(trifluoromethyl)-1H-pyrazol-1-yl)acetyl)piperidin-4-yl)thiazol-4-yl)-4,5-dihydroisoxazol-5-yl)phenyl)imino)dimethyl-λ^6-sulfanone] | ≥ 70 |
